Results are given in words; binding and its absence hold for the method and conditions named. In cells and extracts the contact can be indirect. Some binding calls cover weakened binding; strength is not graded here.
Biological target: Importin-β1 (human (endogenous in HEK293)) (UniProt Q14974)
Assay: co-IP; Importin-β1 immunoprecipitated from 500 µg pre-cleared whole cell lysate of HEK293 cells transiently expressing GFP-tagged ZNF24 proteins, 1.0 µg Karyopherin-β1 antibody (or mouse IgG as control) 2 h, Protein A/G beads overnight at 4°C; blotted with anti-GFP or anti-importin

Amino acid sequences for entries named in this document (tags omitted). A change or cut given only in a name is not applied to a line headed by its entry.
UniProt Q14974: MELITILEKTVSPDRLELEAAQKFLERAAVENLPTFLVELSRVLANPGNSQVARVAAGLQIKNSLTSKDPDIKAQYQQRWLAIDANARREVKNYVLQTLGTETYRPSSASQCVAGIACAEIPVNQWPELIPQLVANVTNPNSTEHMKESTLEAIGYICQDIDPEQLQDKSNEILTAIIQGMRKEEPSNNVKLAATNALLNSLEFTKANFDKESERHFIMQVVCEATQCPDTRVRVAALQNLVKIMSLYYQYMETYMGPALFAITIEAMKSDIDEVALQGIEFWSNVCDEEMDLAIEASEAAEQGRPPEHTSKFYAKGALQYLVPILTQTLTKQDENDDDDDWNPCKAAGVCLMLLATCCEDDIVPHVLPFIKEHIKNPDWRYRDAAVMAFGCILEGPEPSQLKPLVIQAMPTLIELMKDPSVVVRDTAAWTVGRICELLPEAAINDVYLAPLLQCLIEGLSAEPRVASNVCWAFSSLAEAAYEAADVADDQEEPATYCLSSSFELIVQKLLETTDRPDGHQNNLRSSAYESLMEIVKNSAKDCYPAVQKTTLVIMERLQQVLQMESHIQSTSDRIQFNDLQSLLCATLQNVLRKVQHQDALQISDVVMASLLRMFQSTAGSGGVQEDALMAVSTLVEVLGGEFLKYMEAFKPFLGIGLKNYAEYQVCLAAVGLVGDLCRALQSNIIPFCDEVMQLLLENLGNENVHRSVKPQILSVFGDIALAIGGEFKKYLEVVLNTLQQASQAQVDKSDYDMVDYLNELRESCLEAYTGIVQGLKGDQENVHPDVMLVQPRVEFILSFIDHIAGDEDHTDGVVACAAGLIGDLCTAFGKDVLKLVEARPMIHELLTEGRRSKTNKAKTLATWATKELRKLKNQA
UniProt P17028: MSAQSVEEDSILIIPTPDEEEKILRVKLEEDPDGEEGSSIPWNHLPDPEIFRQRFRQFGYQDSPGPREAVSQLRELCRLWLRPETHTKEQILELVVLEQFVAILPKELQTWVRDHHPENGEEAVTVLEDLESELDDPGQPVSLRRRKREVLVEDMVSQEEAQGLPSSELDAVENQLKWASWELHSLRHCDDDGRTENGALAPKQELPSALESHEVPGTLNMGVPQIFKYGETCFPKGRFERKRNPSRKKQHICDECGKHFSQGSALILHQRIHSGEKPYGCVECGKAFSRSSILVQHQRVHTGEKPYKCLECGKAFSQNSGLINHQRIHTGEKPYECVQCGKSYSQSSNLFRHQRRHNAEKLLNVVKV

binding	Substance
binds	Full-length human ZNF24 fused to GFP (ZNF24-GFP, wild type) (from UniProt P17028 1-368)
no binding	ZNF24 residues 1-250 fused to GFP (1-250-GFP; whole ZF region deleted) (from UniProt P17028 1-250) (domain or fragment)

Source: paper PMC3815127
